Patent publication US20220283177A1, “METHOD FOR DETECTING INTERACTION AND AFFINITY BETWEEN LIGAND AND PROTEIN” (DALIAN INSTITUTE OF CHEMICAL PHYSICS, CHINESE ACADEMY OF …, priority 2019, published 2022)
Where two headings read alike, the source gives them in different places.

Assays:
[1] = tested on: protein kinases in 293T cell lysate; conditions: 20 μM staurosporine
[2] = tested on: protein kinases in 293T cell lysate; experiment: CA-based SIP with TMT10 labeling, proteome-wide target screening of staurosporine; conditions: 20 μM staurosporine
[3] = second threshold, printed ΔDistance≥0.5 / ≤0.5

CN[C@@H]1C[C@H]2O[C@@](C)([C@@H]1OC)n1c3ccccc3c3c4c(c5c6ccccc6n2c5c31)C(=O)NC4 [staurosporine] was tested, and the “number of protein kinases among stabilized proteins” value (from here on “number”) ([1]; 15% A.E.A.) was 7, the “number” value ([1]; 16% A.E.A.) was 5 and the “number” value ([1]; 17% A.E.A.) was 4. The “share of quantified protein kinases significantly stabilized after binding of drug (9/19)” value ([1]; three A.E.A. concentrations combined) was 47.37%, the “non-protein kinases share of total candidate binding proteins” value ([2]; filter ΔDistance≥0.5 / ≤0.5) was 32% and the “protein kinases among candidate proteins” value ([2]; filter ΔDistance≥0.5 / ≤0.5) was 36. For the same compound, the “total candidate proteins identified” value ([2]; filter ΔDistance≥0.5 / ≤0.5) was 53, the candidate proteins obtained ([2]; filter ΔDistance≥0.7 / ≤0.7) was 33 and the “non-protein kinases share of total candidate binding proteins” value [2, 3] was 12%. For the same compound, the “protein kinases among candidate binding proteins” value [2, 3] was 29, the “total candidate binding proteins identified” value [2, 3] was 33 and the “stabilized proteins commonly identified in CA-based SIP and Savitski-TPP” value ([2]; ΔDistance≥0.7, 17 were protein kinases) was 19. For the same compound, the “proteins only identified in the SIP method but not in Savitski-TPP” value ([2]; ΔDistance≥0.7, including 12 protein kinases) was 14.
